# From PubChem BioAssay AID588499 (NMMLSC, 2011)
# Screen size: about 360,000 compounds; about 610 (0.17%) were called active. Inconclusive results, whose numbers are uncertain, are shown with a selection of clear calls. Cut-off read from the data, not from the text of the source: active = inhibition above about 30%; inconclusive = no clear call, values can overlap the other calls; inactive = below that.
# Test system: Botulinum neurotoxin type A light chain protease (Clostridium botulinum A str. ATCC 3502)
# Test: blockers of BoNT/A LC substrate cleavage – biochemical, flow cytometry, MLPCN library, primary screen (AID 588499); note: plate controls were buffer without enzyme for full effect and enzyme alone for no effect
# Conditions: multiplex microsphere protease substrate cleavage, at 10 µM, hits give high values
row,SMILES,inhibition
1,COc1cccc(CN2CCSCC2)c1OC,inactive: 1.9%
2,Cc1nn(Cc2c(F)c(F)c(F)c(F)c2F)c(C)c1NC(=O)c1nn(C)cc1[N+](=O)[O-],inconclusive: 0.9%
3,COC(=O)C(N)Cc1ccc(OC)c([N+](=O)[O-])c1 (configuration not stated),inconclusive: -34.1%
4,N#Cc1ccc(S(=O)(=O)NC2CCN(Cc3ccccc3)CC2)cc1,inconclusive: -2.9%
5,CCOC(=O)N1CCN(C(=O)CCS(=O)(=O)c2ccc(Br)s2)CC1,inconclusive: 7.8%
6,COc1ccc(NC(=O)C(CCS(C)(=O)=O)N2C(=O)c3ccccc3C2=O)cc1 (configuration not stated),inconclusive: 4.1%
7,Cc1cc(C(=O)CSc2nnc(-c3ccncc3)n2-c2ccccc2)c(C)n1C,inactive: 0%
8,CCOC(=O)c1ccc(-n2c(N)c(C(=O)NCC3CCCO3)sc2=S)cc1 (configuration not stated),inconclusive: 1.7%
9,Cc1ccc(S(=O)(=O)NCCc2cccs2)cc1,inconclusive: 2%
10,Cc1nnc(SCc2c(Cl)cccc2Cl)n(N)c1=O,inactive: 0.2%
11,COC(=O)Nc1ccc(S(=O)(=O)Nc2cccc3ccccc23)cc1,inconclusive: -0.3%
12,N/C(=N\OC(=O)c1cccc2ccccc12)c1ccncc1,inconclusive: -3.3%
13,Cc1nc(Oc2ccccc2)c2oc3ccccc3c2n1,inactive: -1%
14,CC(=O)CC(C)(C)NC(C)=S,inconclusive: 9.2%
15,O=C1N=C(N2CCC(Cc3ccccc3)CC2)S/C1=C/c1cn[nH]c1-c1ccccc1,inconclusive: 1.6%
16,C=CCn1c(SCC)nc2sc3c(c2c1=O)CCc1ccccc1-3,inactive: -2.5%
17,CC1CCN(C(=O)CSc2ccc(-c3cccc([N+](=O)[O-])c3)nn2)CC1,inactive: 0.1%
18,O=C(c1cc2nc(-c3ccc(F)cc3)cc(C(F)(F)F)n2n1)N1CCOCC1,inactive: 0%
19,CN1CCN(C(=O)c2cc(S(=O)(=O)Nc3ccccc3F)c(Cl)cc2Cl)CC1,inactive: 0.7%
20,O=C1c2ccccc2NC(c2ccc(O)c(O)c2)N1c1ccccc1Cl (configuration not stated),inconclusive: 6.1%
21,Cc1nc2ccccc2c2nc(NC(=O)Cc3ccccc3)nn12,inconclusive: -5.1%
22,O=C(NCCc1ccc(Cl)cc1)C1CCCN1C(=O)Nc1ccccc1 (configuration not stated),inconclusive: 5.1%
23,CCc1cccc(NC(=O)C2CCCN(S(=O)(=O)c3cnc[nH]3)C2)c1 (configuration not stated),inactive: -0.6%

row,SMILES,inhibition
1,COc1cc(-n2cnnn2)ccc1S(=O)(=O)N1CCOCC1,inconclusive: -1%
2,O=C(C[N+]12CCC(CC1)C(OC(=O)c1ccccc1)C2)c1ccc([N+](=O)[O-])cc1 (configuration not stated),inconclusive: 10.6%
3,COC[C@H]1CCCN1c1ccc2c(c1)O[C@H](COCc1ccccc1)CN([C@H](C)c1ccccc1)S2(=O)=O,inactive: -0.1%
4,CC1(C)CC(=O)C(C(C2=C(O)CC(C)(C)CC2=O)c2cccc(O)c2)C(=O)C1 (configuration not stated),inconclusive: -1.3%
5,COC(=O)COc1ccc(S(=O)(=O)NCc2ccc3c(c2)OCO3)cc1C,inactive: -0.9%
6,Cc1ccc(-c2nc3ccccc3c(=O)n2CCN2CCOCC2)cc1,inconclusive: -96.1%
7,Cc1ccc(N2C(=O)CCC2(C#N)c2ccccc2)cc1 (configuration not stated),inconclusive: 5.4%
8,CCCCNC(=O)c1ccc(S(=O)(=O)c2ccc(Cl)cc2)c(NC(C)=O)c1,inactive: 6.2%
9,NC(=O)c1ccc(NC(=O)COc2cccc3c2CCNC3=O)cc1,inconclusive: -5.6%
10,COc1cc(-c2nc(-c3cccc(C)c3)no2)cc(OC)c1OC,inconclusive: 5.3%
11,O=C(NC1(C(F)(F)F)NC(=O)N(Cc2cccnc2)C1=O)c1ccccc1Cl (configuration not stated),inconclusive: -3.3%
12,CCOC(=O)NC(Nc1sc2c(c1C(N)=O)CCCC2)(C(=O)OCC)C(F)(F)F (configuration not stated),inconclusive: 8.1%
13,COc1ccc(C)c2sc(N(CCCN(C)C)C(=O)c3ccc4c(c3)OCCO4)nc12,inactive: 1%
14,CCc1nnc(NC(=O)CCC(=O)NC2CCCc3ccccc32)s1 (configuration not stated),inconclusive: 0.3%
15,O=C(O)CC1(CC(=O)NCc2ccc(-c3cccs3)cc2)CCCCC1,inconclusive: -8.3%
16,COC(=O)Cc1ccc(NC(=S)NCCO)cc1,inconclusive: -21.1%
17,COc1ccc(C(=O)CCC(=O)NC2=NCCS2)cc1,inactive: -0.6%
18,NC(=O)Cn1c(=O)oc2ccccc21,inconclusive: 1.2%
19,CC(C)(C)c1ccc(CC(=O)N2CCC2(C)C(=O)NCc2ccc3c(c2)OCO3)cc1 (configuration not stated),inactive: -0.6%
20,Cc1noc(C)c1S(=O)(=O)N1CCCCC1,inconclusive: -2.1%
21,COC(=O)CSc1nc(C)c(C(C)=O)cc1C#N,inconclusive: 3%
22,CCOC(=O)N1CCN(S(=O)(=O)c2ccc(C(=O)Nc3sc4c(c3C(N)=O)CCN(CC)C4)cc2)CC1,inconclusive: -1.2%
23,COc1cc(CNCc2ccc(OC)c3ccccc23)cc(OC)c1OC,inconclusive: 0.6%

row,SMILES,inhibition
1,CN(CC(=O)O/N=C(\N)c1ccc([N+](=O)[O-])cc1)S(=O)(=O)c1ccc2ccccc2c1,inconclusive: 1.7%
2,CCn1c(=O)cc(SCC(=O)Nc2ccc3c(c2)OCCO3)c2ccccc21,inactive: 7.4%
3,Cc1ccc2[nH]c(=O)c(N3CCOCC3)c(-c3ccccc3)c2c1,inconclusive: -6.1%
4,COC(=O)c1ccc(OCC(=O)c2ccccc2OC)cc1,inconclusive: 2.8%
5,NC(=S)NN=Cc1c[nH]c2nccnc12,inactive: -0.2%
6,Oc1c(Cl)cc(Cl)c(Cl)c1CN1CCOCC1,inactive: 0.2%
7,COCCn1c(C)cc(/C=C2/SC(=O)N(C(C)C(=O)OC)C2=O)c1C (configuration not stated),inconclusive: 8.7%
8,COc1ccc(CC(=O)c2c(O)cc(O)cc2O)cc1OC,inconclusive: -10.9%
9,O=Cc1cn(Cc2ccc(F)cc2)c2ccccc12,inactive: 0.2%
10,CC1CCN(S(=O)(=O)c2ccc3c(c2)CCN3C(=O)C2CCC2)CC1,inconclusive: -5.6%
11,Cc1ccc(-n2c(Cc3cccs3)nnc2SCC(N)=O)cc1,inconclusive: -1.5%
12,C=CCn1c(O)c(C(CC)=Nc2ccccc2NC(=O)CC)c(=O)[nH]c1=O,inconclusive: 0.7%
13,Cc1cc(NS(=O)(=O)c2ccc(NC(=O)Cc3cccs3)cc2)no1,inconclusive: 6.6%
14,COc1ccc(NC(=O)CC(=O)Nc2ccc(OC)cc2)cc1,inactive: 0%
15,CCCCNc1nccnc1-c1cccc(C=O)c1,inactive: -0.2%
16,O=C(O)CCCCc1nc2ccccc2s1,inconclusive: 0.5%
17,CCOC(=O)C1CCN(C(=O)c2cc(S(=O)(=O)N3CCOCC3)ccc2C)CC1,inconclusive: 3.7%
18,CSCCC(=O)NC1CC(C)(C)Cc2c1cnn2-c1ccccc1C (configuration not stated),inconclusive: -1.8%
19,Cc1ccc(C2N(c3cccc(Cl)c3)C(=O)N3CCCN23)cc1 (configuration not stated),inconclusive: -32.2%
20,Cc1cc(C)c(S(=O)(=O)NCc2ccc3c(c2)cc(C)n3C)c(C)c1,active: 77.5%
21,COC(=O)c1c(C)noc1-c1ccc(Cl)cc1,inconclusive: -8.4%
22,OCCN(CC#CCC(O)(c1ccccc1)C1CCCC1)CCO (configuration not stated),inconclusive: 6.3%
23,Cc1ccc(Oc2cnc3ccccc3n2)cc1,inconclusive: -0.7%

# Laid out differently: entries from further up
row	SMILES	inhibition
7	Cc1cc(C(=O)CSc2nnc(-c3ccncc3)n2-c2ccccc2)c(C)n1C	inactive: 0%
14	CCc1nnc(NC(=O)CCC(=O)NC2CCCc3ccccc32)s1 (configuration not stated)	inconclusive: 0.3%
4	COC(=O)c1ccc(OCC(=O)c2ccccc2OC)cc1	inconclusive: 2.8%

# 2 compounds drawn at random from the list so far:
row,SMILES,inhibition
21,Cc1nc2ccccc2c2nc(NC(=O)Cc3ccccc3)nn12,inconclusive: -5.1%
8,CCCCNC(=O)c1ccc(S(=O)(=O)c2ccc(Cl)cc2)c(NC(C)=O)c1,inactive: 6.2%

# Following part:

row,SMILES,inhibition
1,O=C(NCc1ccccn1)c1cc(S(=O)(=O)N2CCCCC2)ccc1Cl,inactive: 3.8%
2,O=C1CC(c2ccccc2)CC(O)=C1C=NCCN1CCN(C(=S)Nc2cccc(Cl)c2)CC1 (configuration not stated),inconclusive: -2.4%
3,CCOC(=O)c1ccc(N2C(=O)c3n[nH]c(C)c3C2c2ccc(OC)c(OC)c2)cc1 (configuration not stated),inconclusive: 3%
4,NS(=O)(=O)c1cccc(NC(=O)Nc2ccccc2)c1,inconclusive: -25.3%
5,O=C(CSc1ncn(-c2ccccc2)n1)Nc1nc(-c2ccccc2)cs1,inconclusive: 2.5%
6,CC(C)(C)Nc1nc2cc([N+](=O)[O-])ccc2o1,inconclusive: -47%
7,Cn1c2c(c(=O)[nH]c1=O)C(c1ccc(O)cc1)C1=C(N2)c2ccccc2C1=O (configuration not stated),inactive: -0.1%
8,O=C1C(Cl)=C(NCC2CCCO2)C(=O)N1Cc1ccccc1 (configuration not stated),inconclusive: 2.5%
9,CC1CN(CCn2cnc3c(N)ncnc32)CC(C)O1 (configuration not stated),inconclusive: -34.7%
10,O=C(Cn1nc(Cc2cccnc2)c2ccccc2c1=O)N1CCC2(CC1)OCCO2,inconclusive: 3.2%
11,COc1cc(-c2ccc(NC(C)=O)c(OC)c2)ccc1NC(C)=O,inactive: -3.2%
12,O=C(CN1CCN(Cc2ccccc2)CC1)Nc1nnc(C(F)(F)F)s1,inconclusive: -4.1%
13,CCC/C(O)=C1\C(=O)CC(C)(C)CC1=NCc1ccccc1,inconclusive: -12.6%
14,O=c1ncn(-c2ccccc2F)c2ncccc12,inactive: 4%
15,N#CC12COC3(CCCCC3C1(C#N)C#N)OC2=N (configuration not stated),inactive: -0.3%
16,CC(C)(C)C(=O)N1CCN(c2ccc([N+](=O)[O-])c(-n3nc(-c4ccccc4)c4ccccc4c3=O)c2)CC1,inactive: 0.1%
17,CC1CCN(S(=O)(=O)c2ccc3[nH]c(=O)cc(C(=O)O)c3c2)CC1,inconclusive: 12.9%
18,CCN(CC)C(=O)c1ccc2c(c1)C1C(Cl)C(Sc3ccccc3[N+](=O)[O-])CC1C(C(=O)O)N2 (configuration not stated),inconclusive: 0.5%
19,Cc1cc(-c2onc(C)c2C(=O)N/N=C/c2ccccc2)no1,inconclusive: -31.3%
20,CC(C)(C)OC(=O)NCCC(=O)N/N=C/c1ccc2ncccc2c1,inconclusive: 21.1%
21,COc1ccc2nc(N3CCCC3)[nH]c2c1,inconclusive: -1.5%
22,Cc1ccc(S(=O)(=O)NCc2cccnc2)cc1C(=O)N1CCCC1,inactive: -1.6%
23,C=CCn1c(=O)c2ccccc2n2c(SCC(=O)/C(C#N)=C(\C)N)nnc12,inconclusive: -4.1%
